In patent publication US20210400977A1, “META-DIAMIDE COMPOUNDS FOR CONTROLLING INVERTEBRATE PESTS” (FMC Corporation, priority 2018, published 2021):
Some entries share one result that the patent states for a list of compounds.

System: diamondback moth (Plutella xylostella (L.))
Assay: Test A: control of diamondback moth, foliar spray on mustard plant
Format: in vivo
Conditions: sprayed at 50 ppm, assessed after 6 days, value is the feeding damage limit

| SMILES | control efficacy (40% or less feeding damage and/or 100% mortality) [%] |
| --- | --- |
| CC(=O)NCc1cc(NC(=O)C2C(c3cc(Cl)cc(Cl)c3)C2(Cl)Cl)ccc1F (stereo not shown) [Compound 54] | ≤ 40 |
| CS(=O)(=O)CC(=O)NCc1cc(NC(=O)C2C(c3ccc(F)c(Cl)c3)C2(Cl)Cl)ccc1F (stereo not shown) [Compound 197] | ≤ 40 |
| CC(C)C(=O)NCc1cc(NC(=O)C2C(c3ccc(F)c(C(F)(F)F)c3)C2(Cl)Cl)ccc1F (stereo not shown) [Compound 37] | ≤ 40 |
| O=C(NCc1cc(NC(=O)C2C(c3cc(F)cc(Cl)c3)C2(Cl)Cl)ccc1F)C1CC1 (stereo not shown) [Compound 99] | ≤ 40 |
| CC(=O)NCc1cc(NC(=O)C2C(c3ccc(F)c(Cl)c3)C2(Cl)Cl)ccc1C (stereo not shown) [Compound 139] | ≤ 40 |
| CC(=O)NCc1cccc(NC(=O)C2C(c3cc(Cl)cc(Cl)c3)C2(Cl)Cl)c1F (stereo not shown) [Compound 20] | ≤ 40 |
| CCC(=O)NCc1cc(NC(=O)C2C(c3ccccc3)C2(Cl)Cl)ccc1Cl (stereo not shown) [Compound 13] | ≤ 40 |
| O=C(CC(F)(F)F)NCc1cc(NC(=O)C2C(c3ccc(Cl)c(Cl)c3)C2(Cl)Cl)ccc1Cl (stereo not shown) [Compound 115] | ≤ 40 |
| O=C(CC1CC1)NCc1cc(NC(=O)C2C(c3cccc(C(F)(F)F)c3)C2(Cl)Cl)ccc1Cl (stereo not shown) [Compound 210] | ≤ 40 |
| O=C(Nc1ccc(Cl)c(CNC(=O)C(F)(F)F)c1)C1C(c2ccc(C(F)(F)F)cc2)C1(Cl)Cl (stereo not shown) [Compound 201] | ≤ 40 |
| CC(C)CC(=O)NCc1cc(NC(=O)C2C(c3ccc(F)c(Cl)c3)C2(Cl)Cl)ccc1Cl (stereo not shown) [Compound 128] | ≤ 40 |
| O=C(Nc1ccc(F)c(CNC(=O)C(F)(F)F)c1F)C1C(c2ccc(F)c(Cl)c2)C1(Cl)Cl (stereo not shown) [Compound 167] | ≤ 40 |
| CC(=O)NCc1cc(NC(=O)C2C(c3ccc(F)c(F)c3)C2(Cl)Cl)ccc1Cl (stereo not shown) [Compound 95] | ≤ 40 |
| CC(C)C(=O)NCc1cc(NC(=O)C2C(c3cc(Cl)cc(Cl)c3)C2(Cl)Cl)ccc1F (stereo not shown) [Compound 56] | ≤ 40 |
| O=C(NCc1cc(NC(=O)C2C(c3ccc(Cl)c(Cl)c3)C2(Cl)Cl)ccc1Cl)C1CC1 (stereo not shown) [Compound 40] | ≤ 40 |
| O=C(NCc1cc(NC(=O)C2C(c3cc(Cl)cc(Cl)c3)C2(Cl)Cl)ccc1Cl)c1ccc(F)cc1 (stereo not shown) [Compound 64] | ≤ 40 |
| O=C(NCc1cc(NC(=O)C2C(c3ccc(Cl)c(F)c3)C2(Cl)Cl)ccc1Cl)C1CC1 (stereo not shown) [Compound 132] | ≤ 40 |

Same assay, conditions: sprayed at 250 ppm, assessed after 6 days, value is the feeding damage limit

| SMILES | control efficacy (40% or less feeding damage and/or 100% mortality) [%] |
| --- | --- |
| NCC(=O)NCc1cc(NC(=O)C2C(c3ccc(F)c(C(F)(F)F)c3)C2(Cl)Cl)ccc1F (stereo not shown) [Compound 156] | ≤ 40 |
| CC(=O)NCc1cc(NC(=O)C2C(c3cc(Cl)cc(Cl)c3)C2(Cl)Cl)ccc1F (stereo not shown) [Compound 54] | ≤ 40 |
| CC(C)C(=O)NCc1cc(NC(=O)C2C(c3ccc(F)c(C(F)(F)F)c3)C2(Cl)Cl)ccc1F (stereo not shown) [Compound 37] | ≤ 40 |
| CC(=O)NCc1cc(NC(=O)C2C(c3ccc(F)c(Cl)c3)C2(Cl)Cl)ccc1C (stereo not shown) [Compound 139] | ≤ 40 |
| CC(=O)NCc1cccc(NC(=O)C2C(c3cc(Cl)cc(Cl)c3)C2(Cl)Cl)c1F (stereo not shown) [Compound 20] | ≤ 40 |
| CCC(=O)NCc1cc(NC(=O)C2C(c3ccccc3)C2(Cl)Cl)ccc1Cl (stereo not shown) [Compound 13] | ≤ 40 |
| CCC(=O)NCc1cc(NC(=O)C2C(c3cc(Cl)cc(Cl)c3)C2(Cl)Cl)ccc1Cl (stereo not shown) [Compound 52] | ≤ 40 |
| O=C(Nc1ccc(Cl)c(CNC(=O)C(F)(F)F)c1)C1C(c2ccc(C(F)(F)F)cc2)C1(Cl)Cl (stereo not shown) [Compound 201] | ≤ 40 |
| CC(C)C(=O)NCc1cc(NC(=O)C2C(c3cc(Cl)cc(Cl)c3)C2(Cl)Cl)ccc1F (stereo not shown) [Compound 56] | ≤ 40 |
| O=C(NCc1cc(NC(=O)C2C(c3ccc(Cl)c(Cl)c3)C2(Cl)Cl)ccc1Cl)C1CC1 (stereo not shown) [Compound 40] | ≤ 40 |
| O=C(NCc1cc(NC(=O)C2C(c3cc(Cl)cc(Cl)c3)C2(Cl)Cl)ccc1Cl)c1ccc(F)cc1 (stereo not shown) [Compound 64] | ≤ 40 |

System: fall armyworm (Spodoptera frugiperda (J. E. Smith))
Assay: Test B: control of fall armyworm, foliar spray on corn (maize) plant
Format: in vivo
Conditions: sprayed at 50 ppm, assessed after 6 days, value is the feeding damage limit

| SMILES | control efficacy (40% or less feeding damage and/or 100% mortality) [%] |
| --- | --- |
| CC(=O)NCc1cc(NC(=O)C2C(c3cc(Cl)cc(Cl)c3)C2(Cl)Cl)ccc1F (stereo not shown) [Compound 54] | ≤ 40 |
| CS(=O)(=O)CC(=O)NCc1cc(NC(=O)C2C(c3ccc(F)c(Cl)c3)C2(Cl)Cl)ccc1F (stereo not shown) [Compound 197] | ≤ 40 |
| CC(C)C(=O)NCc1cc(NC(=O)C2C(c3ccc(F)c(C(F)(F)F)c3)C2(Cl)Cl)ccc1F (stereo not shown) [Compound 37] | ≤ 40 |
| O=C(NCc1cc(NC(=O)C2C(c3cc(F)cc(Cl)c3)C2(Cl)Cl)ccc1F)C1CC1 (stereo not shown) [Compound 99] | ≤ 40 |
| CC(=O)NCc1cccc(NC(=O)C2C(c3cc(Cl)cc(Cl)c3)C2(Cl)Cl)c1F (stereo not shown) [Compound 20] | ≤ 40 |
| O=C(CC(F)(F)F)NCc1cc(NC(=O)C2C(c3ccc(Cl)c(Cl)c3)C2(Cl)Cl)ccc1Cl (stereo not shown) [Compound 115] | ≤ 40 |
| CCC(=O)NCc1cc(NC(=O)C2C(c3cc(Cl)cc(Cl)c3)C2(Cl)Cl)ccc1Cl (stereo not shown) [Compound 52] | ≤ 40 |
| O=C(CC1CC1)NCc1cc(NC(=O)C2C(c3cccc(C(F)(F)F)c3)C2(Cl)Cl)ccc1Cl (stereo not shown) [Compound 210] | ≤ 40 |
| O=C(Nc1ccc(Cl)c(CNC(=O)C(F)(F)F)c1)C1C(c2ccc(C(F)(F)F)cc2)C1(Cl)Cl (stereo not shown) [Compound 201] | ≤ 40 |
| CC(C)CC(=O)NCc1cc(NC(=O)C2C(c3ccc(F)c(Cl)c3)C2(Cl)Cl)ccc1Cl (stereo not shown) [Compound 128] | ≤ 40 |
| O=C(Nc1ccc(F)c(CNC(=O)C(F)(F)F)c1F)C1C(c2ccc(F)c(Cl)c2)C1(Cl)Cl (stereo not shown) [Compound 167] | ≤ 40 |
| CC(=O)NCc1cc(NC(=O)C2C(c3ccc(F)c(F)c3)C2(Cl)Cl)ccc1Cl (stereo not shown) [Compound 95] | ≤ 40 |
| CC(C)C(=O)NCc1cc(NC(=O)C2C(c3cc(Cl)cc(Cl)c3)C2(Cl)Cl)ccc1F (stereo not shown) [Compound 56] | ≤ 40 |
| O=C(NCc1cc(NC(=O)C2C(c3ccc(Cl)c(Cl)c3)C2(Cl)Cl)ccc1Cl)C1CC1 (stereo not shown) [Compound 40] | ≤ 40 |
| O=C(NCc1cc(NC(=O)C2C(c3cc(Cl)cc(Cl)c3)C2(Cl)Cl)ccc1Cl)c1ccc(F)cc1 (stereo not shown) [Compound 64] | ≤ 40 |
| O=C(NCc1cc(NC(=O)C2C(c3ccc(Cl)c(F)c3)C2(Cl)Cl)ccc1Cl)C1CC1 (stereo not shown) [Compound 132] | ≤ 40 |

Same assay, conditions: sprayed at 250 ppm, assessed after 6 days, value is the feeding damage limit

| SMILES | control efficacy (40% or less feeding damage and/or 100% mortality) [%] |
| --- | --- |
| NCC(=O)NCc1cc(NC(=O)C2C(c3ccc(F)c(C(F)(F)F)c3)C2(Cl)Cl)ccc1F (stereo not shown) [Compound 156] | ≤ 40 |
| CC(=O)NCc1cc(NC(=O)C2C(c3cc(Cl)cc(Cl)c3)C2(Cl)Cl)ccc1F (stereo not shown) [Compound 54] | ≤ 40 |
| CC(C)C(=O)NCc1cc(NC(=O)C2C(c3ccc(F)c(C(F)(F)F)c3)C2(Cl)Cl)ccc1F (stereo not shown) [Compound 37] | ≤ 40 |
| CC(=O)NCc1cc(NC(=O)C2C(c3ccc(F)c(Cl)c3)C2(Cl)Cl)ccc1C (stereo not shown) [Compound 139] | ≤ 40 |
| CC(=O)NCc1cccc(NC(=O)C2C(c3cc(Cl)cc(Cl)c3)C2(Cl)Cl)c1F (stereo not shown) [Compound 20] | ≤ 40 |
| CCC(=O)NCc1cc(NC(=O)C2C(c3ccccc3)C2(Cl)Cl)ccc1Cl (stereo not shown) [Compound 13] | ≤ 40 |
| CCC(=O)NCc1cc(NC(=O)C2C(c3cc(Cl)cc(Cl)c3)C2(Cl)Cl)ccc1Cl (stereo not shown) [Compound 52] | ≤ 40 |
| O=C(Nc1ccc(Cl)c(CNC(=O)C(F)(F)F)c1)C1C(c2ccc(C(F)(F)F)cc2)C1(Cl)Cl (stereo not shown) [Compound 201] | ≤ 40 |
| CC(C)C(=O)NCc1cc(NC(=O)C2C(c3cc(Cl)cc(Cl)c3)C2(Cl)Cl)ccc1F (stereo not shown) [Compound 56] | ≤ 40 |
| O=C(NCc1cc(NC(=O)C2C(c3ccc(Cl)c(Cl)c3)C2(Cl)Cl)ccc1Cl)C1CC1 (stereo not shown) [Compound 40] | ≤ 40 |
| O=C(NCc1cc(NC(=O)C2C(c3cc(Cl)cc(Cl)c3)C2(Cl)Cl)ccc1Cl)c1ccc(F)cc1 (stereo not shown) [Compound 64] | ≤ 40 |
